Source: patent US9605266
For some of these results: Results from cells or extracts need not show a direct contact.

Legend:
[1] = biological target: C-C chemokine receptor type 5 (CCR5) (Homo sapiens) (UniProt P51681); experiment: flow cytometry; details: 2'-F pyrimidines (2'-F-C, 2'-F-U), protein on the cell surface
[2] = biological target: C-C chemokine receptor type 5 (CCR5) (Homo sapiens) (UniProt P51681); experiment: activity in cells; details: 2'-F pyrimidines in sense strand (transcribed); 400 nM, no transfection agent: TNPO3 knockdown in CEM-NKr-CCR5 but not in CCR5-negative CEM-NKr cells; protein on the cell surface; protein details: CEM-NKr-CCR5 cells; variant of G-3 aptamer
[3] = also qRT-PCR binding/internalization, no binding to CCR5-negative U373-Magi, protein details: U373-Magi-CCR5E cells, label: Cy3

“GGGAGGACGAUGCGGAUCGUCUAUUAGUCGCUGGCCAGACGACUCGCCCGA [G-1 aptamer]”: binds [1, 3].
“GGGAGGACGAUGCGGCCUUUCGUCUGUUUCUGCGCCAGACGACUCGCCCGA [G-6 aptamer]”: binds [1, 3].
“GGGAGGACGAUGCGGGCCUUCGUUUGUUUCGUCCACAGACGACUCGCCCGA [G-3 aptamer]”: binds ([1]; binding to and internalization in PBMC-CD4+ cells, protein details: endogenous on primary PBMC-CD4+ cells, label: Cy3 (binding assays)).
With “GGGAGGACGAUGCGGGCCUUCGUUUGUUUCGUCCACAGACGACUCGCCCGAUUUUUUUUCGACAUUGCAGCUCGUGUACCAGGC / GCCUGGUACACGAGCUGCAAUGUCGGC [G-3-TNPO3 27-mer Blunt chimera]” the “functional effect of the aptamer” value [2] was “active”.
“GGGAGGACGAUGCGGUCCCGGCUCGUUCGUCUGUGCAGACGACUCGCCCGA [G-4 aptamer]”: binds [1, 3].
“GGGAGGACGAUGCGGUCCUUGGCUUUUCGUCUGUGCAGACGACUCGCCCGA [G-2 aptamer]”: binds [1, 3].
“GGGAGGACGAUGCGGUUCGUCAUUUUUCGUCUGGGCAGACGACUCGCCCGA [G-5 aptamer]”: binds [1, 3].
